Source: the supplement of paper PMC10849652
Some of the results follow.

Protein sequences, listed by entry. Tags and fused reporters are not part of them. Lines headed by an entry give the natural chain unless they say otherwise; changes in a name come on top.
UniProt Q9BXS4: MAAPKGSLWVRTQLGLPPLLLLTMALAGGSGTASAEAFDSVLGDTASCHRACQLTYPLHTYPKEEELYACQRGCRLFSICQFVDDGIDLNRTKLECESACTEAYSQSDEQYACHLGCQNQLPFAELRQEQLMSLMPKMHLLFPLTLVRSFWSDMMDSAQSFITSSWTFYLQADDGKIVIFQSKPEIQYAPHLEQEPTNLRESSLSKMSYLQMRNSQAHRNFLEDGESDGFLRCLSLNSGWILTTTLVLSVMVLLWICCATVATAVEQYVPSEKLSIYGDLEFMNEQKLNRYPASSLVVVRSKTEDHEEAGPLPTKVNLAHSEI
UniProt Q96Q45: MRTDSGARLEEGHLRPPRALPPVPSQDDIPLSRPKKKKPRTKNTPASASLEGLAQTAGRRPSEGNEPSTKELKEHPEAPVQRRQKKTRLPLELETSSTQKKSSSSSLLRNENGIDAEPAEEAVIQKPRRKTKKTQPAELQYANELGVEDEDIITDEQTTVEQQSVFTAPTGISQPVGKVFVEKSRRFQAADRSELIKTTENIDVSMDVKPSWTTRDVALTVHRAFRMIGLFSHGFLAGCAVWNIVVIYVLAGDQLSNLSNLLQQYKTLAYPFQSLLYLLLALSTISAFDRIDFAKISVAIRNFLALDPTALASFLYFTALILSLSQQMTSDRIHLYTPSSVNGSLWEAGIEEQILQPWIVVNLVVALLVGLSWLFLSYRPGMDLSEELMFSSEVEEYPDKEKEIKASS
UniProt Q96AN5: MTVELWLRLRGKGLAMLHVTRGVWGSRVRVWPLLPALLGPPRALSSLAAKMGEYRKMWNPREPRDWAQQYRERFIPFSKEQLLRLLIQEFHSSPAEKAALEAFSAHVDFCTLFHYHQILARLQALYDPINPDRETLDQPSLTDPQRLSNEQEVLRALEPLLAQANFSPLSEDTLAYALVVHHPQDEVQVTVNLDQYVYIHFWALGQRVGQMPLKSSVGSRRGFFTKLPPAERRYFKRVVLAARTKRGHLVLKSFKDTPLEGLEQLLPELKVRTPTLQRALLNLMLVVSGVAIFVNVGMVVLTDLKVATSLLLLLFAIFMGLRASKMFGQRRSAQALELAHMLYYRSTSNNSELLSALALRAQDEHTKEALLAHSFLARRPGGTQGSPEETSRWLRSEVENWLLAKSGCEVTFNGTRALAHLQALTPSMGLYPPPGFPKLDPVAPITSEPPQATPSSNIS
UniProt Q92545: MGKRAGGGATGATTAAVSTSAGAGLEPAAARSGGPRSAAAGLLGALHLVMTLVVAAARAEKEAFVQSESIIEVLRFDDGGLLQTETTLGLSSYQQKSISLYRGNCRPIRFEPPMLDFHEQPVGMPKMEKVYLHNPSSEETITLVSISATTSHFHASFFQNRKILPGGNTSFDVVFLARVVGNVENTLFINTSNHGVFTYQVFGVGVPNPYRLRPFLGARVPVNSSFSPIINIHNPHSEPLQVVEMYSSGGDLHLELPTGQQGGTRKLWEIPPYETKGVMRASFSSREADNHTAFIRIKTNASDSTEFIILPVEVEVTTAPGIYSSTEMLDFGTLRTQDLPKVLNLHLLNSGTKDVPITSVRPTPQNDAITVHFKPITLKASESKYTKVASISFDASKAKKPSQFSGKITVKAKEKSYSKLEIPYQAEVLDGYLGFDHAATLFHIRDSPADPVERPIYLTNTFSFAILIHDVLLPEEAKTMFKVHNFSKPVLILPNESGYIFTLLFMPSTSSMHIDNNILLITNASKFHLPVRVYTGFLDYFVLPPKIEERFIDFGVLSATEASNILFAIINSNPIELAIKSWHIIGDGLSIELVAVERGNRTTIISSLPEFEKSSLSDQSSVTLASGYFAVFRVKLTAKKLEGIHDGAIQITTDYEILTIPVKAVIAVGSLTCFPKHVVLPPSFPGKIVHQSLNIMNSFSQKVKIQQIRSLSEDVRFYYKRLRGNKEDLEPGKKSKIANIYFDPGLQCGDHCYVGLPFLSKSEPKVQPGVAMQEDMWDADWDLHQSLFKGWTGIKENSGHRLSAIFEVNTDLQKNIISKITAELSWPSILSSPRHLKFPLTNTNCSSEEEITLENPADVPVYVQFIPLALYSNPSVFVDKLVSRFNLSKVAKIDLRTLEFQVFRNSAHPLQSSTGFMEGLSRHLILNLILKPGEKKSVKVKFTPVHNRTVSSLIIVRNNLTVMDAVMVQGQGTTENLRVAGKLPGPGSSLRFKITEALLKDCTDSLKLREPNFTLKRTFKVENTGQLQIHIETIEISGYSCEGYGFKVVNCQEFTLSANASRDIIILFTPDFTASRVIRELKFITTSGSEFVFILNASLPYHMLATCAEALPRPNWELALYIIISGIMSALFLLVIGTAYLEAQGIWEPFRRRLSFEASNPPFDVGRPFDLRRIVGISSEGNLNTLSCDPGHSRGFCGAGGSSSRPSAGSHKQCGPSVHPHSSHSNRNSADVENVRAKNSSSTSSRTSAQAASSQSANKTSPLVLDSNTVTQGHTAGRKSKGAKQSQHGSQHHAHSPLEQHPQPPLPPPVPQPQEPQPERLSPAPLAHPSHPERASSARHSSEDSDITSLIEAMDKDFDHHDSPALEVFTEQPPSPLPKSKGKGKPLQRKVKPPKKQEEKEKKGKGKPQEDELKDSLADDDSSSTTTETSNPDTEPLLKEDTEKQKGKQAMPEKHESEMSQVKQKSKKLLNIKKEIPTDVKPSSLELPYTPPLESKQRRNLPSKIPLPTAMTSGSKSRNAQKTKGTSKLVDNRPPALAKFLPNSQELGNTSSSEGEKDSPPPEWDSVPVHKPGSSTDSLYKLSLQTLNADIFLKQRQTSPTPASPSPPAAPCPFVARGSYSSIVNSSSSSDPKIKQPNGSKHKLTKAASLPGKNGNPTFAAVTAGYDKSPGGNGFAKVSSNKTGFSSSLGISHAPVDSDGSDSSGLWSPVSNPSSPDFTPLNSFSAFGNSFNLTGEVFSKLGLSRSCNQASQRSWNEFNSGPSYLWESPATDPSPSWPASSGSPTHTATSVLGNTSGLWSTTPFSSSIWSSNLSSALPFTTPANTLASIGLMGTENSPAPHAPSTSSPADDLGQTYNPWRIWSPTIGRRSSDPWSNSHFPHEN
UniProt P19438, whole entry, looked up: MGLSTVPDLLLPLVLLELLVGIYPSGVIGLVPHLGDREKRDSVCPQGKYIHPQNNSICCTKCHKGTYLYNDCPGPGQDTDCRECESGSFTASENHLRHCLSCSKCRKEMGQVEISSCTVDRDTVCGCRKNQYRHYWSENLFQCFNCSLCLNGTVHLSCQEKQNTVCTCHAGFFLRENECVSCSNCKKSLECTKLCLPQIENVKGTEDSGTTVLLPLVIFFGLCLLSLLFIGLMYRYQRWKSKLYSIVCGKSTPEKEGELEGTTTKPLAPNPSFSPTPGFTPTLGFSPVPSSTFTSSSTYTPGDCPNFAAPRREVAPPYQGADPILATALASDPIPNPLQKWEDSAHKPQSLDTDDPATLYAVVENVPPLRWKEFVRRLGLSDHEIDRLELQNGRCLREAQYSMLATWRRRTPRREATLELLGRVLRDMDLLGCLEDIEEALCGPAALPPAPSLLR
UniProt Q96B96: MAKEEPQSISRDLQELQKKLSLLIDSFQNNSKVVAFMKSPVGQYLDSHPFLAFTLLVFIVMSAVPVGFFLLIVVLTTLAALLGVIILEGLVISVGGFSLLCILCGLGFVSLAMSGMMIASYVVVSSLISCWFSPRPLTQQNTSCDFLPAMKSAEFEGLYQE
UniProt O75204: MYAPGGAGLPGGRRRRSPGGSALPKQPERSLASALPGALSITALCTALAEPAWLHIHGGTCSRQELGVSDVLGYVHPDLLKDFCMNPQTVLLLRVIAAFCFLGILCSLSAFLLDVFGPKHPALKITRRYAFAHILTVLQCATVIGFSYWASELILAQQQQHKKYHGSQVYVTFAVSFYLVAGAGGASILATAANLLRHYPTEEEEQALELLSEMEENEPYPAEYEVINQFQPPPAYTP
UniProt Q9BVX2: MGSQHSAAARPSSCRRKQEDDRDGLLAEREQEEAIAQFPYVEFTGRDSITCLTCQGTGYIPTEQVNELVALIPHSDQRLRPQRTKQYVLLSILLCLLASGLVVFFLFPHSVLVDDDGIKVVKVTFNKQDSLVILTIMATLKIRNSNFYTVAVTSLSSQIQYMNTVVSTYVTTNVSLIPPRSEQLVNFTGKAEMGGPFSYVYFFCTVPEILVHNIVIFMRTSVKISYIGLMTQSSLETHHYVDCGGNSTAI
UniProt Q12767: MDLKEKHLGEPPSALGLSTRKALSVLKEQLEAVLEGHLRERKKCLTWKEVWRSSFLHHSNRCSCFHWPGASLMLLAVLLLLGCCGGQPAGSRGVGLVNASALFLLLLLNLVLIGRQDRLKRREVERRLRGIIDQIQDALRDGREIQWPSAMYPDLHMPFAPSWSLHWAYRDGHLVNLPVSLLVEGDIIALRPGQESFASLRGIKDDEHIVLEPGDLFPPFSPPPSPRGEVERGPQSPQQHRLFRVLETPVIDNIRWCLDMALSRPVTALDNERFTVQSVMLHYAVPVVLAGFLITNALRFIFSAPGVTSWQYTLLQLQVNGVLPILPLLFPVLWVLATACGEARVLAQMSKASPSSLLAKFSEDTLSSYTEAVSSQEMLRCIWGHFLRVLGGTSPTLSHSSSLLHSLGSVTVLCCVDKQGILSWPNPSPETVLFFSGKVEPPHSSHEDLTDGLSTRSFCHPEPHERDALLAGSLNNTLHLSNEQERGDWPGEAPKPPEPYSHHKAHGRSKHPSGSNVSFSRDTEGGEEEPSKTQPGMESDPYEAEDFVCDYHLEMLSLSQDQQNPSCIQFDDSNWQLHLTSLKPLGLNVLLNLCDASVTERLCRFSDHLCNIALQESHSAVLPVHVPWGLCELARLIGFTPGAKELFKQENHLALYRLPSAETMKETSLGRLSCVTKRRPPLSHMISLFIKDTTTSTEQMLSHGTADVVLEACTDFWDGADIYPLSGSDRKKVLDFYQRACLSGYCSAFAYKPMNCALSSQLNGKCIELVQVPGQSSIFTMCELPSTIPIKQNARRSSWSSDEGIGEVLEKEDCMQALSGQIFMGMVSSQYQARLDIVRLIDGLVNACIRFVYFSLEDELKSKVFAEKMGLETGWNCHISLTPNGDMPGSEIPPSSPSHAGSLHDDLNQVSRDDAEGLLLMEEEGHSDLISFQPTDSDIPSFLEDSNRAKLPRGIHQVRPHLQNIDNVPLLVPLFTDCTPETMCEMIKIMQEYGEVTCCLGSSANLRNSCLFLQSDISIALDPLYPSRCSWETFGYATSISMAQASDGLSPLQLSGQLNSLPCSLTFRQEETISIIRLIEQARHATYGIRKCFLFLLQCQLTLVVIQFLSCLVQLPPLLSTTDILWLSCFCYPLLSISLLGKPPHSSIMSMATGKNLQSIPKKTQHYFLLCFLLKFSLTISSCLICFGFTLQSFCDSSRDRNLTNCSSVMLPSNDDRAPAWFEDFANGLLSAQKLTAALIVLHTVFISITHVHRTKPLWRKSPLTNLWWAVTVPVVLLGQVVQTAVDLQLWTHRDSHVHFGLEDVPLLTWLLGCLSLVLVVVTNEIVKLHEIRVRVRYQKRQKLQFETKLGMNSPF
UniProt Q6UW68: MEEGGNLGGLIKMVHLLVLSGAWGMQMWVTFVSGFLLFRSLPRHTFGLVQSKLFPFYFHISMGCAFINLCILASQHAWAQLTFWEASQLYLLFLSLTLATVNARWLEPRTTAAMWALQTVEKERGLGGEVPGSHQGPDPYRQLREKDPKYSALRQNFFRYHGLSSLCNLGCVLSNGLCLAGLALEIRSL
UniProt Q5SNT2: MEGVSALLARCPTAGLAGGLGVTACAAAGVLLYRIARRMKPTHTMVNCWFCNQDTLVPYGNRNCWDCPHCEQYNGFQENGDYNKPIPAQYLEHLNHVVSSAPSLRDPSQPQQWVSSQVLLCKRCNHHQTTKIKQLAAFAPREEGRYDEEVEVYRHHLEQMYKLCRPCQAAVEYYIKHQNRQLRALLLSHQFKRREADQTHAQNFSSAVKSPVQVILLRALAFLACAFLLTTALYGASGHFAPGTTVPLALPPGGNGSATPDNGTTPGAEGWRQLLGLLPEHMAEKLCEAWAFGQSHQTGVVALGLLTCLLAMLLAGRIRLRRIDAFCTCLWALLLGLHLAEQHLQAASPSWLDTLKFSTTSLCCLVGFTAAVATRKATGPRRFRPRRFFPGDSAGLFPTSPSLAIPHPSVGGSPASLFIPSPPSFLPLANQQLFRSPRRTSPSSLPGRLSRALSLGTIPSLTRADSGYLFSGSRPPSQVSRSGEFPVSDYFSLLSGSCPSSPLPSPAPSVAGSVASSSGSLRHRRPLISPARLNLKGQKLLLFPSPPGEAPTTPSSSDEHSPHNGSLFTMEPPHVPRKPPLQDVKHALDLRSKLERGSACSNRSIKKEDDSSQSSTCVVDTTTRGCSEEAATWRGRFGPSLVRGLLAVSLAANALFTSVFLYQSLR
UniProt P62328: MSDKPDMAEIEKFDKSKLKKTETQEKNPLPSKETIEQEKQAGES
UniProt O95807: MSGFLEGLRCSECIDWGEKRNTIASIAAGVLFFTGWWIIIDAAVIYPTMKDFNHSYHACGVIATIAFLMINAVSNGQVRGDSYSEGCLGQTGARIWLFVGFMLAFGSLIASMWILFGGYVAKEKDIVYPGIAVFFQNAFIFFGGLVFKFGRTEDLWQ

Compound: C#Cc1cccc(Nc2ncnc3cc(OCCOC)c(OCCOC)cc23)c1 [erlotinib]
Assay: log2 fold change, soluble protein after heating vs DMSO (PISA); higher = thermal stabilisation; K562 cells, 10 uM, 30 min; active = over 0.2 and 3.5 SD of the protein, either way, in both replicates (recomputed)
How it was run: (§1)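 K562 cells at 2×10^6 cells/mL were exposed to 10 μM compound for 30 min, then aliquots were heated for 3 min across 48°C-58°C, pooled, and extracted in PBS containing 0.5% NP-40 at 4°C. The supernatant after 21,000xg for 90 min was taken as soluble protein and measured by TMTpro 16plex LC-MS/MS with channel sums equalised. Thermal stability is reported relative to control samples, with values from duplicates. Fold changes are given on a log2 scale.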

log2 fold change, inactive:
TMEM8A (UniProt Q9HCN3) 0.046
TNFAIP2 (UniProt Q03169) 0.325
TMEM256 (UniProt Q8N2U0) -0.104
TM7SF2 (UniProt O76062) -0.012
TMEM59 (UniProt Q9BXS4) -0.196
TMCO6 isoform 2 (UniProt Q96DC7) 0.036
TMEM237 isoform 3 (UniProt Q96Q45) -0.126
TMEM143 (UniProt Q96AN5) -0.206
TMEM184B (UniProt Q9Y519) 0.081
TMEM175 (UniProt Q9BSA9) -0.045
TMEM131 (UniProt Q92545) 0.037
TNFRSF1A (UniProt P19438) 0.034
TMEM35B (UniProt Q8NCS4) -0.031
TMEM159 isoform 2 (UniProt Q96B96) 0.007
TMEM246 (UniProt Q9BRR3) -0.112
TMPO (UniProt G5E972) 0.03
TMEM127 (UniProt O75204) -0.09
TMEM106C (UniProt Q9BVX2) -0.045
TMEM94 isoform 2 (UniProt Q12767) 0.206
TMEM260 (UniProt Q9NX78) 0.131
TMEM205 (UniProt Q6UW68) -0.098
TMEM167B (UniProt Q9NRX6) 0.099
TMEM201 (UniProt Q5SNT2) 0.087
TMEM44 (UniProt Q2T9K0) 0.005
TLR4 (UniProt O00206) 0.22

Compound: C/C(=N\NC(=O)C1=CC(=CC=C1)S(=O)(=O)N2CCOCC2)/C3=C(C=CC(=C3)Cl)O
Assay: as above
How it was run: as §1

log2 fold change, inactive:
TMEM184C (UniProt Q9NVA4) 0.04
TMEM59 (UniProt Q9BXS4) 0.013
TMSB4X (UniProt P62328) -0.374
TMEM143 (UniProt Q96AN5) -0.114
TMEM175 (UniProt Q9BSA9) 0.297
TMEM79 (UniProt Q9BSE2) -0.232
TMEM131 (UniProt Q92545) -0.078
TLE5 isoform 2 (UniProt Q08117) 0.018
TMEM127 (UniProt O75204) 0.008
TMEM94 isoform 2 (UniProt Q12767) 0.026
TMEM260 (UniProt Q9NX78) -0.072
TMCC1 (UniProt O94876) -0.021
TMEM50A (UniProt O95807) 0.052
TMCC2 (UniProt O75069) -0.254
TMEM273 isoform 2 (UniProt Q5T292) -0.037

Compound: C1=CC(=C(C=C1Cl)C2=NC3=NC=CN=C3C(=N2)NC4=CC=NC=C4)F
Assay: as above
How it was run: as §1

log2 fold change, inactive:
TMCO3 (UniProt Q6UWJ1) -0.001
TMEM184C (UniProt Q9NVA4) -0.055
TMEM237 isoform 3 (UniProt Q96Q45) 0.132
TMSB4X (UniProt P62328) -0.588
TNFRSF1A (UniProt P19438) -0.156
TMEM159 isoform 2 (UniProt Q96B96) -0.115
TMEM205 (UniProt Q6UW68) 0.026
TMEM201 (UniProt Q5SNT2) 0
TMCC1 (UniProt O94876) 0.12
TMEM50A (UniProt O95807) -0.013

Compound: C1=CC(=CC=C1C2=NC3=C(N2)C=C(C=C3)C(=O)N)OC4=CC=C(C=C4)Cl
Assay: as above
How it was run: as §1

log2 fold change, inactive:
TMEM8A (UniProt Q9HCN3) -0.001
TNFAIP2 (UniProt Q03169) -0.02
TMEM256 (UniProt Q8N2U0) -0.087
TM7SF2 (UniProt O76062) -0.05
TMEM59 (UniProt Q9BXS4) 0.076
TMCO6 isoform 2 (UniProt Q96DC7) -0.065
TMEM237 isoform 3 (UniProt Q96Q45) 0.02
TMEM143 (UniProt Q96AN5) -0.007
TMEM184B (UniProt Q9Y519) 0.055
TMEM175 (UniProt Q9BSA9) 0.042
TMEM131 (UniProt Q92545) 0.068
TNFRSF1A (UniProt P19438) -0.108
TMEM35B (UniProt Q8NCS4) -0.159
TMEM159 isoform 2 (UniProt Q96B96) 0.048
TMEM246 (UniProt Q9BRR3) 0.251
TMPO (UniProt G5E972) -0.163
TMEM127 (UniProt O75204) 0.079
TMEM106C (UniProt Q9BVX2) -0.124
TMEM94 isoform 2 (UniProt Q12767) -0.04
TMEM260 (UniProt Q9NX78) 0.047
TMEM205 (UniProt Q6UW68) -0.022
TMEM167B (UniProt Q9NRX6) 0.014
TMEM201 (UniProt Q5SNT2) -0.01
TMEM44 (UniProt Q2T9K0) 0.128
TLR4 (UniProt O00206) 0.168
